Experimental data reported in PMC7819943, “Rice protein-binding microarrays: a tool to detect cis-acting elements near promoter regions in rice”.
This is one part of the list.

target: T1, OsSMF1 (Oryza sativa, UniProt Q6ZLB0 1-436); assay: protein-binding microarray (RPBM); PBS, 2% BSA, 51.3 ng/ul salmon testes DNA, 50 uM zinc acetate, 200 nM TF, 25 C, 1 h; high values mean tight binding; settings: protein: recombinant; tags: N-terminal polyhistidine and DsRed monomer fusion (pET32a); chain copies: 2; label: CyDye5-dUTP incorporated in the synthesized complementary strand; 3' TTTTT single-stranded linker to array surface; dsDNA, one strand shown
T1 sequence: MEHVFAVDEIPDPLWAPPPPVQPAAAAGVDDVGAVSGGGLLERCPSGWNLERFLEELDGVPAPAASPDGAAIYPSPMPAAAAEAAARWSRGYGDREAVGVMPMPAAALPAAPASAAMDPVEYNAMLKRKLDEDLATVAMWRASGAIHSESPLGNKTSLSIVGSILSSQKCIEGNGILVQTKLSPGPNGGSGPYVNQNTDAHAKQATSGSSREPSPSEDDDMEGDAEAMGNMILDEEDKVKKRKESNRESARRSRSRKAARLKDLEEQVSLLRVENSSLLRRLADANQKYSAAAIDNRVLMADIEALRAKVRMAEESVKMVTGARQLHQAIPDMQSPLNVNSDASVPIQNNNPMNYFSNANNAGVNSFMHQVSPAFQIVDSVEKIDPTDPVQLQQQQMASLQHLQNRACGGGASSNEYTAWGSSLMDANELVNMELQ
Procedure, shortened: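 Binding signal here means per-feature fluorescence intensity in arbitrary units. The values were read on an Axon 4000B scanner after a custom Agilent array, double-stranded by primer extension with Cy5-dUTP, was incubated with 200 nM protein at 25 °C for 1 h in PBS with 2% BSA, salmon testes DNA and 50 µM zinc acetate, then washed. The proteins were transcription factors with an N-terminal polyhistidine tag and DsRed, expressed in E. coli BL21-CodonPlus and purified on Ni–NTA.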

Row | Sequence | binding signal
1 | CAGAAACAATCAATATAAATCTCTTCCTTATAATTATAATCGGAGTCACCTAGTGCAG | 15100 fluorescence intensity (a.u.)
2 | AGCAGCAGCAGCTTGCCTGAGCTGAGCTGACAGATCAGTCCGGAGTCACCTAGTGCAG | 3490 fluorescence intensity (a.u.)
3 | CAATCTTTATCCCGTCATCCACCTCATTGTTCTTACCCAACGGAGTCACCTAGTGCAG | 6130 fluorescence intensity (a.u.)
4 | CCGCCTAGTGGCATCCCGCCGCATCAGCTCGGCGAGCTCGCGGAGTCACCTAGTGCAG | 3340 fluorescence intensity (a.u.)
5 | ATGATGATTGTTAGTGGATGATGATGTGTCATCTTGTTAACGGAGTCACCTAGTGCAG | 8460 fluorescence intensity (a.u.)
6 | CAATCAGTACAGACATCCTCGGTGTCGTTTTCAAAAGTCTCGGAGTCACCTAGTGCAG | 3270 fluorescence intensity (a.u.)
7 | TTAATCCCGGTTTTGTCCTACGTGGCTGCTAAGTCAGCGTCGGAGTCACCTAGTGCAG | 29900 fluorescence intensity (a.u.)
8 | AGCTCGTAGTGGAGTGAACGAGTGATGTGGAACAGGTAGGCGGAGTCACCTAGTGCAG | 3570 fluorescence intensity (a.u.)
9 | AGTTGTGGCAGCCACAAAATTGTGGTGGACAAATTTCTAGCGGAGTCACCTAGTGCAG | 3720 fluorescence intensity (a.u.)
10 | TTCGAGGCAGCGTATAGCATCGTGGCACGCAGAAGCTTGGCGGAGTCACCTAGTGCAG | 3950 fluorescence intensity (a.u.)
11 | GATCGTCGCGTCGTCGGCGTTGGCATCGGCATCCATGTGCCGGAGTCACCTAGTGCAG | 3830 fluorescence intensity (a.u.)
12 | TTAAGGTGTGTTTAGTTCCACGTCAAAATTAGAAGTTTGACGGAGTCACCTAGTGCAG | 7090 fluorescence intensity (a.u.)
13 | TTGCGCTTCGTCGACAGTTTCGCGGCCACGTTGTCCAAGGCGGAGTCACCTAGTGCAG | 4890 fluorescence intensity (a.u.)
14 | CAAGCAAGTTTAGCGTCGCGCGCGCTCGTGACGAGTCGTGCGGAGTCACCTAGTGCAG | 4280 fluorescence intensity (a.u.)
15 | CCGGCAAAAGTCTCTCCATCTTGTCATCGTCTTCTCCAGCCGGAGTCACCTAGTGCAG | 4700 fluorescence intensity (a.u.)
16 | TGATGGATACCCAAATATCCAATGCGTCCTCAAGTCCATGCGGAGTCACCTAGTGCAG | 3780 fluorescence intensity (a.u.)
17 | TCATTGACTCATGTGGGTCCTACGTGTCATTGAGATACCGCGGAGTCACCTAGTGCAG | 12300 fluorescence intensity (a.u.)
18 | GACTCGCGCGCGGCGAGCGACACGCGGCCGGCTGCGCGGGCGGAGTCACCTAGTGCAG | 3140 fluorescence intensity (a.u.)
19 | GATGGAGGATGGGCGAGAGCGAGCAGTTACCGCGTGCAGGCGGAGTCACCTAGTGCAG | 4520 fluorescence intensity (a.u.)
20 | CGGGGAATGCCATTGCCACCGCGTCACCCGTTGTTCGGATCGGAGTCACCTAGTGCAG | 5920 fluorescence intensity (a.u.)
21 | AAGCTGTTCAACGTTCTGATGCGTGACCTTGTCAGATTGGCGGAGTCACCTAGTGCAG | 3640 fluorescence intensity (a.u.)

Individual results from the results shown.
Value for CCGGCAAAAGTCTCTCCATCTTGTCATCGTCTTCTCCAGCCGGAGTCACCTAGTGCAG under binding signal: 4700 fluorescence intensity (a.u.)
Value for ATGATGATTGTTAGTGGATGATGATGTGTCATCTTGTTAACGGAGTCACCTAGTGCAG under binding signal: 8460 fluorescence intensity (a.u.)

(continued)

Row | Sequence | binding signal
22 | AGATGCCGCCTTCGTCTCCTCGCCGACGTCACCGCCACCCCGGAGTCACCTAGTGCAG | 8260 fluorescence intensity (a.u.)
23 | AAAAGCTCGTGACTCGTTAGCTCGCTCGGTTCGTGTCTGGCGGAGTCACCTAGTGCAG | 3420 fluorescence intensity (a.u.)
24 | GTTCGTCCCCAACGCCACGCCGCCACCAACCGCGCCGCCCCGGAGTCACCTAGTGCAG | 4580 fluorescence intensity (a.u.)
25 | AGCAGCATGATTAGTACAGCACACCTTTGCGGATCCAATGCGGAGTCACCTAGTGCAG | 3570 fluorescence intensity (a.u.)
26 | TCTAGCATGTCATTCGGTATATGCTAAGTCAGCCAAAGTGCGGAGTCACCTAGTGCAG | 3620 fluorescence intensity (a.u.)
27 | CGCTGCCGCTGCCGTGGTCCTACGTCCTGCGCCGCCGCTGCGGAGTCACCTAGTGCAG | 4000 fluorescence intensity (a.u.)
28 | GTGCACCACCGCACACGGATCCACCTCCTGTCTCGTCGCACGGAGTCACCTAGTGCAG | 27400 fluorescence intensity (a.u.)
29 | CACTCCCGTAACCGATTCGCTTTCACACGACACCGCGACGCGGAGTCACCTAGTGCAG | 3180 fluorescence intensity (a.u.)
30 | GCTCCTCTCGTGTCGTCTTCACCAAAGCGAACTCCTCACTCGGAGTCACCTAGTGCAG | 3350 fluorescence intensity (a.u.)
31 | CTCAACCTATTGTGTGGATCCGGACCCTCATATTATCCATCGGAGTCACCTAGTGCAG | 4110 fluorescence intensity (a.u.)
32 | TCTAGACAATCAAGCCGCTAGAAGTTTCATAGAGTGGTAGCGGAGTCACCTAGTGCAG | 7160 fluorescence intensity (a.u.)
33 | CTCTCTTTCTCGCAGCCGCACGCGCGGAGGCCGATTCGGCCGGAGTCACCTAGTGCAG | 3290 fluorescence intensity (a.u.)
34 | ATATATATATATATATATATATTGATGATTTAATGAAACTCGGAGTCACCTAGTGCAG | 14200 fluorescence intensity (a.u.)
35 | TCTGTTAGTCTCTGCCACGAACGCACGAGCACTGCATCTCCGGAGTCACCTAGTGCAG | 4160 fluorescence intensity (a.u.)
36 | GCTCGTTGGAACGTTCGTTGCGGACGCACGCGCTACGAGCCGGAGTCACCTAGTGCAG | 3290 fluorescence intensity (a.u.)
37 | ACTGGTAATATTCGCATATATATATATATATATATATATACGGAGTCACCTAGTGCAG | 3470 fluorescence intensity (a.u.)
38 | AATAATTCCACATCACAATAGGTGTGGAATAAATCCCCTCCGGAGTCACCTAGTGCAG | 5300 fluorescence intensity (a.u.)
39 | GATGGCGTCATTGAAATTTGACATAGTATTTTATCATTCGCGGAGTCACCTAGTGCAG | 11500 fluorescence intensity (a.u.)
40 | ATTTACGAGACAGTGCCCATTGATACGTGGCAGCAGAACCCGGAGTCACCTAGTGCAG | 13700 fluorescence intensity (a.u.)
41 | ATTATGCTTTGAAATTAGAGATGGGGTAGCATATTTGTTGCGGAGTCACCTAGTGCAG | 19700 fluorescence intensity (a.u.)
42 | TCGATCTCGCCCAATTTTAGATTCTAATGATCAGGGTAGACGGAGTCACCTAGTGCAG | 14400 fluorescence intensity (a.u.)
